Test results as given in paper doi:10.1101/2020.04.17.046268.
These are yes or no findings as the source states them, for the method shown. Binding seen in cells or lysates may run through a third protein. Some entries that bind do so weakly or less than the wild type.

By UniProt entry, the sequences of proteins in these tests, tags left out.
UniProt Q99592: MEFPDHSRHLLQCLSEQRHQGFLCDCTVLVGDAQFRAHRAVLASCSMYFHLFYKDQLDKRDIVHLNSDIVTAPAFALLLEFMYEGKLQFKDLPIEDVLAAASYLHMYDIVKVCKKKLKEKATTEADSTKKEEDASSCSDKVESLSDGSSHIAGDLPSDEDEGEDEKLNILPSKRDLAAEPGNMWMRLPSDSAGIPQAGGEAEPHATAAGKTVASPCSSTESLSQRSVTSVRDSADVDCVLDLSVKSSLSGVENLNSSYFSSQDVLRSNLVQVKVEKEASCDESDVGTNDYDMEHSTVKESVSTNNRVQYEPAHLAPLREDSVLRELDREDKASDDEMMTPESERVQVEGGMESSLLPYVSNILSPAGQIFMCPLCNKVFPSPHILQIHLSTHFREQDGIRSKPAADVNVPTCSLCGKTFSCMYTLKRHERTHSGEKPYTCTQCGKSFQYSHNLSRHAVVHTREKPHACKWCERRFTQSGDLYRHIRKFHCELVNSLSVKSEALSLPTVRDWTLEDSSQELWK
UniProt O75362: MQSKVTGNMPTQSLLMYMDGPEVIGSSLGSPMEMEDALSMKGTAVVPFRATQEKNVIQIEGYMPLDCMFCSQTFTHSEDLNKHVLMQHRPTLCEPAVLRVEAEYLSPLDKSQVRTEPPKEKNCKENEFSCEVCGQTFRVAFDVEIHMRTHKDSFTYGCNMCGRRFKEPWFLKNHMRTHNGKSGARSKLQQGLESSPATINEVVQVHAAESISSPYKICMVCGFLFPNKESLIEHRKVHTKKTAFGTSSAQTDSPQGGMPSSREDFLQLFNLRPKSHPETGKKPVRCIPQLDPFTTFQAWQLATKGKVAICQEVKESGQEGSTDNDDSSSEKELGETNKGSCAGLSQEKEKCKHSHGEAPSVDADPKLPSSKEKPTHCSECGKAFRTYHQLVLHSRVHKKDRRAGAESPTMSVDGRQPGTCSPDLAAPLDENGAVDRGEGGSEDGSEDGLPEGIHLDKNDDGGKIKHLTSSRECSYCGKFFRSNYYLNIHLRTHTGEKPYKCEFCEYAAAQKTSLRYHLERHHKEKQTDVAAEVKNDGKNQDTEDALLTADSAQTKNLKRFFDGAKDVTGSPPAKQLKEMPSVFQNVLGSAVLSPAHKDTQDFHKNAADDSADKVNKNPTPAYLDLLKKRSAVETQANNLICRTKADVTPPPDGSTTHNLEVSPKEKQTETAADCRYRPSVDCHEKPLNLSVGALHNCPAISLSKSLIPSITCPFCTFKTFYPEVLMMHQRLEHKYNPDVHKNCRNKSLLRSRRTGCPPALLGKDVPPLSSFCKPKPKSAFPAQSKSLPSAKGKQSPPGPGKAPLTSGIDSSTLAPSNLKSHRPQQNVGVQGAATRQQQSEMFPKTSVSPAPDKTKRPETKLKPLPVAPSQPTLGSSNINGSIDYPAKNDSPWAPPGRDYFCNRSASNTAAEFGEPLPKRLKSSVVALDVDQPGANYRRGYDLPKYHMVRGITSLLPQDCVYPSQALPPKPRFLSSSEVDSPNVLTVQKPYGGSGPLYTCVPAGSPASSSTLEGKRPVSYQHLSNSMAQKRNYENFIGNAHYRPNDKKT

Columns and labels:
Experiment in all cases: co-IP
[1] = target: ZBTB18 (endogenous) (human (endogenous in BTSC3082, BTSC268, BTSC475)) (UniProt Q99592)
FLAG-ZBTB18 = FLAG-ZBTB18 (UniProt Q99592)
[2] = target: CTBP2 (C-terminal binding protein 2) (human (endogenous in BTSC lines, SNB19, LN229)) (UniProt P56545)

Row | binding [1] | binding (FLAG-ZBTB18) | binding [2] | Substance
1 | binds | binds | – | CTBP2 (C-terminal binding protein 2) (from UniProt P56545 1-445)
2 | – | – | binds weakly | ZBTB18 (endogenous) (from UniProt Q99592 1-522)
3 | – | – | binds | ZNF217 (from UniProt O75362 1-1048)
